From article PMC10543749
These are yes or no findings as the source states them, for the method shown. In cells and extracts the contact can be indirect. Some entries that bind do so weakly or less than the wild type.

By UniProt entry, the sequences of proteins in these tests, tags left out.
UniProt O42202: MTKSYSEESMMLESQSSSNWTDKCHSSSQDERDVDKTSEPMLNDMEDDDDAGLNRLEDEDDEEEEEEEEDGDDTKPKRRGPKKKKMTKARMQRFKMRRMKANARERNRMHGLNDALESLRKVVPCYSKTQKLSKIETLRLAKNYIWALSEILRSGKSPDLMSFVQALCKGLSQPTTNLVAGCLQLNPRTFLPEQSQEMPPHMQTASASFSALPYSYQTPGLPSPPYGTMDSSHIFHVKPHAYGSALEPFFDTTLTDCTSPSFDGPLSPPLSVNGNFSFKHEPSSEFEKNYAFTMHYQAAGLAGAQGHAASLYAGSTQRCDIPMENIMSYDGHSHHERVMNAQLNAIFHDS

Legend:
[1] = biological target: GST-tagged zebrafish Pin1 (zebrafish); assay: pull-down; recombinant GST-zebrafish Pin1 immobilized on Glutathione Sepharose 4B beads, incubated with HEK 293T lysates overexpressing HA-Nrd or Nrd mutants, 4°C, 3 h; blot with anti-HA; only the target purified
[2] = biological target: FLAG-tagged zebrafish Pin1 (zebrafish); assay: co-IP; HEK 293T cells co-transfected with FLAG-zPin1 and HA-NeuroD; lysates (50 mM Hepes pH 7.4, 10% glycerol, 1% Triton X-100, 100 mM NaCl, 0.5 mM MgCl2, protease and phosphatase inhibitors) incubated with FLAG-M2 beads 1.5 h at 4°C; blot with anti-HA

HA-tagged Nrd (NeuroD) (from UniProt O42202 1-350)
binding [1]: binds
binding [2]: binds
